These are yes or no findings as the source states them, for the method shown. In cells and extracts the contact can be indirect. Some entries that bind do so weakly or less than the wild type.
Target: 3HA-3FLAG-CIAO3-S161I (human) (UniProt Q9H6Q4)
Test: co-IP; anti-HA beads on whole cell extracts of Flp-In 293 cells expressing the 3HA-3FLAG-tagged bait (NUBP2, CIAO3 wildtype or S161I, ERCC2 wildtype or mutant); 100 mM Tris-HCl pH 8.0, 150 mM NaCl, 5% glycerol, 0.1% NP-40, 4 °C; immunoblot of endogenous partners; cells untreated or treated with FAC, DFO (3 or 8 h), tBHP (4 h), 1% O2 (16 h), nontarget siRNA or 1% formaldehyde

Chains of the proteins cited; added tags and fusions are not shown. Lines headed by an entry give the natural chain unless they say otherwise; changes in a name come on top.
UniProt Q9H6Q4: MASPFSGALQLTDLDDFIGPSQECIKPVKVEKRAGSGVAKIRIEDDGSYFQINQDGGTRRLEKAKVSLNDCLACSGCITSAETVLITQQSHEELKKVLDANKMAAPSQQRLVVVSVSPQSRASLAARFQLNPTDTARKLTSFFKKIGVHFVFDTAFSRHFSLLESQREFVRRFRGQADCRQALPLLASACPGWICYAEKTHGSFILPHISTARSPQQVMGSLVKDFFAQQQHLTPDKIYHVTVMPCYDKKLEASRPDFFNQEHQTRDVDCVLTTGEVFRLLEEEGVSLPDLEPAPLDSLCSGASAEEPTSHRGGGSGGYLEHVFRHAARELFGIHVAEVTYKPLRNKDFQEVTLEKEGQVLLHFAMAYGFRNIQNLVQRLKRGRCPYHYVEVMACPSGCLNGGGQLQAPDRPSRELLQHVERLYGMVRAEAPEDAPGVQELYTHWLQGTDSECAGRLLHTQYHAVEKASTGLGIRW

“ERCC2, endogenous (from UniProt P18074 1-760)” was tested, and the binding was “binds”.

— paper PMC9243173
